Test results as given in patent US20100099614A1, “Antimicrobial Peptides and Methods of Use” (priority 2008, published 2010).

Test system: Gram-negative bacteria
Experiment: Antibacterial activity (MIC), microtiter dilution
Format: cell-based
Procedure: MICs were determined by a standard microtiter dilution method in Mueller Hinton Broth (MHB). Serial dilutions of the 10× compound were added to the microtiter plates in a volume of 10 μL followed by 90 μL of bacteria for an inoculum of 5×10^5 colony-forming units (CFU)/mL. The plates were incubated at 37° C. for 24 h, and the MICs were determined as the lowest peptide concentration that inhibited growth. […]
Alternatively; minimal inhibitory concentrations were determined using a standard microtiter dilution method in a Mueller-Hinton (MH) medium. Briefly, cells were grown overnight at 37° C. in MH broth and diluted in the same medium. Serial dilutions of the peptides were added to the microtiter plates in a volume of 100 μl followed by 10 μl of bacteria for an initial cell concentration of 1×10^5 CFU/ml. Plates were incubated at 37° C. for 24 hours and MICs determined as the lowest peptide concentration that inhibited growth.

CC[C@@H](C)[C@@H](NC(=O)[C@@H](C)NC(=O)[C@@H](CCCCN)NC(=O)[C@@H](CC(C)C)NC(=O)[C@@H](C)NC(=O)[C@H](NC(=O)[C@@H](Cc1c[nH]cn1)NC(=O)[C@@H](CC(C)C)NC(=O)[C@H](NC(=O)[C@H](NC(=O)[C@@H](CCCCN)NC(=O)[C@@H](CCCCN)NC(=O)[C@@H](C)NC(=O)[C@@H](CO)NC(=O)[C@@H](CCCCN)NC(=O)[C@@H](Cc1ccccc1)NC(=O)[C@H](NC(=O)[C@@H](CCCCN)NC(=O)[C@@H](CC(C)C)NC(=O)[C@@H](Cc1ccccc1)NC(=O)[C@@H](CO)NC(=O)[C@@H](CCCCN)NC(=O)[C@@H](Cc1c[nH]c2ccccc12)NC(=O)[C@@H](CCCCN)NC(C)=O)[C@H](C)O)[C@H](C)O)C(C)C)[C@H](C)O)C(=O)N[C@H](CO)C(=O)N[C@H](CO)C(N)=O [D1]
Therapeutic index HC50/MIC, Gram-negative bacteria (ratio of HC50 (μg/mL) over geometric mean MIC (μg/mL)): 198.4
Therapeutic index Fold (fold improvement compared to that of D4), Gram-negative bacteria (relative to D4): 1281 fold
